Publication PMC5572458
No constants are given. Whether binding was seen depends on the method and setting. In cells and extracts the contact can be indirect. Some results given as binding are weak or reduced against the parent protein; the word gives no strength.

Target: T1, Chromodomain Y-like (CDYL) protein (human (endogenous in SH-SY5Y)) (UniProt Q9Y232)
T1 sequence: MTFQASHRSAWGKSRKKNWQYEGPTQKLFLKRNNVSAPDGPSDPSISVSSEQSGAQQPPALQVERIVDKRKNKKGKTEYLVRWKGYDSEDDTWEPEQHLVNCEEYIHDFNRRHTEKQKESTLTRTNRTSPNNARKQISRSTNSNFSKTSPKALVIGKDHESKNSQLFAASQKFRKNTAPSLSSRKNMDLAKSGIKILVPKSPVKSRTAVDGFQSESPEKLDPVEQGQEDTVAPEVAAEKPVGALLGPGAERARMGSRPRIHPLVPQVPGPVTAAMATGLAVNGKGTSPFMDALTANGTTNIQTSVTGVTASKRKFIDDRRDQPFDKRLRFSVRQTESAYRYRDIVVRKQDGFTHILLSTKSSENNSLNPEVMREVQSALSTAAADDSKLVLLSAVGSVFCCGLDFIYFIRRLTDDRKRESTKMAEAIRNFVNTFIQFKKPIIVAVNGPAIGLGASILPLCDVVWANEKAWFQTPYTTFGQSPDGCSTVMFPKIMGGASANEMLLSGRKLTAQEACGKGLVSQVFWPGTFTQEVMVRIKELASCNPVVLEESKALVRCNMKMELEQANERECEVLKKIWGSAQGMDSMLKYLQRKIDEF
Assay: co-IP; SH-SY5Y whole cell lysate (50 mM Tris-HCl pH 7.4, 150 mM NaCl, 1 mM EDTA, 0.3% NP-40), 2 ug anti-CDYL antibody 12 h at 4 C, protein A agarose beads, five washes with lysis buffer, western blot

B1: REST (protein, UniProt Q13127 1-1097)
chain: MATQVMGQSSGGGGLFTSSGNIGMALPNDMYDLHDLSKAELAAPQLIMLANVALTGEVNGSCCDYLVGEERQMAELMPVGDNNFSDSEEGEGLEESADIKGEPHGLENMELRSLELSVVEPQPVFEASGAPDIYSSNKDLPPETPGAEDKGKSSKTKPFRCKPCQYEAESEEQFVHHIRVHSAKKFFVEESAEKQAKARESGSSTAEEGDFSKGPIRCDRCGYNTNRYDHYTAHLKHHTRAGDNERVYKCIICTYTTVSEYHWRKHLRNHFPRKVYTCGKCNYFSDRKNNYVQHVRTHTGERPYKCELCPYSSSQKTHLTRHMRTHSGEKPFKCDQCSYVASNQHEVTRHARQVHNGPKPLNCPHCDYKTADRSNFKKHVELHVNPRQFNCPVCDYAASKKCNLQYHFKSKHPTCPNKTMDVSKVKLKKTKKREADLPDNITNEKTEIEQTKIKGDVAGKKNEKSVKAEKRDVSKEKKPSNNVSVIQVTTRTRKSVTEVKEMDVHTGSNSEKFSKTKKSKRKLEVDSHSLHGPVNDEESSTKKKKKVESKSKNNSQEVPKGDSKVEENKKQNTCMKKSTKKKTLKNKSSKKSSKPPQKEPVEKGSAQMDPPQMGPAPTEAVQKGPVQVEPPPPMEHAQMEGAQIRPAPDEPVQMEVVQEGPAQKELLPPVEPAQMVGAQIVLAHMELPPPMETAQTEVAQMGPAPMEPAQMEVAQVESAPMQVVQKEPVQMELSPPMEVVQKEPVQIELSPPMEVVQKEPVKIELSPPIEVVQKEPVQMELSPPMGVVQKEPAQREPPPPREPPLHMEPISKKPPLRKDKKEKSNMQSERARKEQVLIEVGLVPVKDSWLLKESVSTEDLSPPSPPLPKENLREEASGDQKLLNTGEGNKEAPLQKVGAEEADESLPGLAANINESTHISSSGQNLNTPEGETLNGKHQTDSIVCEMKMDTDQNTRENLTGINSTVEEPVSPMLPPSAVEEREAVSKTALASPPATMAANESQEIDEDEGIHSHEGSDLSDNMSEGSDDSGLHGARPVPQESSRKNAKEALAVKAAKGDFVCIFCDRSFRKGKDYSKHLNRHLVNVYYLEEAAQGQE
- binding: binds
